Here are results for 6 molecules from paper PMC7710356, “RNF41 regulates the damage recognition receptor Clec9A and antigen cross-presentation in mouse dendritic cells” (eLife, 2020).

Sequences of proteins named here, by UniProt entry; tags and fusion partners are left off. A change or cut given only in a name is not applied to a line headed by its entry.
UniProt Q8BRU4: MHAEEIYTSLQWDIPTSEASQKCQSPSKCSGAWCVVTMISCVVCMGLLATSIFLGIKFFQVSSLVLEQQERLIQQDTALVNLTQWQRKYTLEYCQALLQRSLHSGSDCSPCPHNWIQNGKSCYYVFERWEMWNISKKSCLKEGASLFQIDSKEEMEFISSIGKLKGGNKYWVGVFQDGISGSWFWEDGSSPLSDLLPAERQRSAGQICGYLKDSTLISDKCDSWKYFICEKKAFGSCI

B1: Erlin2 (endogenous, 293F cells) (protein, UniProt O94905 1-339)
chain: MAQLGAVVAVASSFFCASLFSAVHKIEEGHIGVYYRGGALLTSTSGPGFHLMLPFITSYKSVQTTLQTDEVKNVPCGTSGGVMIYFDRIEVVNFLVPNAVYDIVKNYTADYDKALIFNKIHHELNQFCSVHTLQEVYIELFDQIDENLKLALQQDLTSMAPGLVIQAVRVTKPNIPEAIRRNYELMESEKTKLLIAAQKQKVVEKEAETERKKALIEAEKVAQVAEITYGQKVMEKETEKKISEIEDAAFLAREKAKADAECYTAMKIAEANKLKLTPEYLQLMKYKAIASNSKIYFGKDIPNMFMDSAGSVSKQFEGLADKLSFGLEDEPLETATKEN
B2: RNF41 full-length (mammalian expression construct in pcDNA3.1+) (enzyme, UniProt Q9H4P4 1-317)
chain: MGYDVTRFQGDVDEDLICPICSGVLEEPVQAPHCEHAFCNACITQWFSQQQTCPVDRSVVTVAHLRPVPRIMRNMLSKLQIACDNAVFGCSAVVRLDNLMSHLSDCEHNPKRPVTCEQGCGLEMPKDELPNHNCIKHLRSVVQQQQTRIAELEKTSAEHKHQLAEQKRDIQLLKAYMRAIRSVNPNLQNLEETIEYNEILEWVNSLQPARVTRWGGMISTPDAVLQAVIKRSLVESGCPASIVNELIENAHERSWPQGLATLETRQMNRRYYENYVAKRIPGKQAVVVMACENQHMGDDMVQEPGLVMIFAHGVEEI
B3: Erlin1 (endogenous, 293F cells) (protein, UniProt O75477 1-348)
chain: MNMTQARVLVAAVVGLVAVLLYASIHKIEEGHLAVYYRGGALLTSPSGPGYHIMLPFITTFRSVQTTLQTDEVKNVPCGTSGGVMIYIDRIEVVNMLAPYAVFDIVRNYTADYDKTLIFNKIHHELNQFCSAHTLQEVYIELFDQIDENLKQALQKDLNLMAPGLTIQAVRVTKPKIPEAIRRNFELMEAEKTKLLIAAQKQKVVEKEAETERKKAVIEAEKIAQVAKIRFQQKVMEKETEKRISEIEDAAFLAREKAKADAEYYAAHKYATSNKHKLTPEYLELKKYQAIASNSKIYFGSNIPNMFVDSSCALKYSDIRTGRESSLPSKEALEPSGENVIQNKESTG
B4: Calnexin (endogenous, MutuDC 1940) (protein, UniProt P35564 21-591)
chain: HDGHDDDAIDIEDDLDDVIEEVEDSKSKSDASTPPSPKVTYKAPVPTGEVYFADSFDRGSLSGWILSKAKKDDTDDEIAKYDGKWEVDEMKETKLPGDKGLVLMSRAKHHAISAKLNKPFLFDTKPLIVQYEVNFQNGIECGGAYVKLLSKTAELSLDQFHDKTPYTIMFGPDKCGEDYKLHFIFRHKNPKTGVYEEKHAKRPDADLKTYFTDKKTHLYTLILNPDNSFEILVDQSVVNSGNLLNDMTPPVNPSREIEDPEDRKPEDWDERPKIADPDAVKPDDWDEDAPSKIPDEEATKPEGWLDDEPEYIPDPDAEKPEDWDEDMDGEWEAPQIANPKCESAPGCGVWQRPMIDNPNYKGKWKPPMIDNPNYQGIWKPRKIPNPDFFEDLEPFKMTPFSAIGLELWSMTSDIFFDNFIISGDRRVVDDWANDGWGLKKAADGAAEPGVVLQMLEAAEERPWLWVVYILTVALPVFLVILFCCSGKKQSNAMEYKKTDAPQPDVKDEEGKEEEKNKRDEEEEEEKLEEKQKSDAEEDGVTGSQDEEDSKPKAEEDEILNRSPRNRKPRRE
B5: Erlin2 (endogenous, MutuDC 1940) (protein, UniProt Q8BFZ9 1-340)
chain: MAQLGAVVAVASSFFCASLFSAVHKIEEGHIGVYYRGGALLTSTSGPGFHLMLPFITSYKSVQTTLQTDEVKNVPCGTSGGVMIYFDRIEVVNFLVPNAVYDIVKNYTADYDKALIFNKIHHELNQFCSVHTLQEVYIELFDQIDENLKLALQQDLTSMAPGLVIQAVRVTKPNIPEAIRRNYELMESEKTKLLIAAQKQKVVEKEAETERKKALIEAEKVAQVAEITYGQKVMEKETEKKISEIEDAAFLAREKAKADAECYTALKIAEANKLKLTPEYLQLMKYKAIASNSKIYFGKDIPNMFMDSAGGLGKQFEGLSDDKLGFGLEDEPLEAPTKEN
B6: RNF41 (endogenous, mouse cDC1) (enzyme, UniProt Q8BH75 1-317)
chain: MGYDVTRFQGDVDEDLICPICSGVLEEPVQAPHCEHAFCNACITQWFSQQQTCPVDRSVVTVAHLRPVPRIMRNMLSKLQIACDNAVFGCSAVVRLDNLMSHLSDCEHNPKRPVTCEQGCGLEMPKDELPNHNCIKHLRSVVQQQQSRIAELEKTSAEHKHQLAEQKRDIQLLKAYMRAIRSVNPNLQNLEETIEYNEILEWVNSLQPARVTRWGGMISTPDAVLQAVIKRSLVESGCPASIVNELIENAHERSWPQGLATLETRQMNRRYYENYVAKRIPGKQAVVVMACENQHMGDDMVQEPGLVMIFAHGVEEI

No constants are given. Whether binding was seen depends on the method and setting. Binding seen in cells or lysates may run through a third protein. A result given as binding can be weak or reduced; the word gives no strength.

The target of the first test is FLAG-tagged full length mouse Clec9A (mClec9A-FLAG) (mouse) (UniProt Q8BRU4). The test is described as follows: co-IP; 293F cells co-transfected with mClec9A-FLAG and RNF41, RNF41-ΔRING, Ub-Myc or vector; lysis in 1% Triton X-100, 150 mM NaCl, 1 mM EDTA, 50 mM Tris pH 6.0-7.5; IP with anti-FLAG M2 affinity gel; western blot.
Regarding B1, the binding result is on record as “binds”.
On the same count and under the same terms, the entry for B2 is “binds”.
Same read-out and setting: with B3 the entry was “binds”.

The target in a further test is Clec9A (endogenous, mouse cDC1) (mouse (endogenous in MutuDC 1940 and spleen cDC1)). The test is described as follows: proximity ligation; Duolink PLA on fixed, permeabilized MutuDC 1940 (and primary spleen cDC1 for RNF41); mouse anti-Clec9A serum against the extracellular domain with rabbit antibody to the partner; steady state, and after culture with dead CHO-K1 cells (4 or 18 hr) and/or MG132 (5 μM).
On to B4, for which the binding entry was “binds”.
The same measure, in the same setting: with B5 the entry was “binds”.
On the same count and under the same terms, with B6 the entry was “binds”.
